No constants are given. Whether binding was seen depends on the method and setting. Binding seen in cells or lysates may run through a third protein. Some binding calls cover weakened binding; strength is not graded here.
Experiments:
[1] = biological target: Cytoplasmic protein NCK2 (mouse (endogenous in C57BL/6J tissue and primary neurons)) (UniProt O55033); test: co-IP; tissue lysates of C57BL/6J mice incubated with NCK2 antibody or IgG control; Western blot with NCK2, EphA4 and Rho A antibodies
[2] = biological target: Cytoplasmic protein NCK2 (mouse (endogenous in C57BL/6J tissue and primary neurons)) (UniProt O55033); test: co-IP; cell lysates of primary neurons from Snac-/- (KO) mice or WT littermates immunoprecipitated with anti-NCK2 antibodies; Western blot with EphA4 and Rho A antibodies

Sequences of proteins named here, by UniProt entry; tags and fusion partners are left off. Residues count along the entry.
UniProt O55033: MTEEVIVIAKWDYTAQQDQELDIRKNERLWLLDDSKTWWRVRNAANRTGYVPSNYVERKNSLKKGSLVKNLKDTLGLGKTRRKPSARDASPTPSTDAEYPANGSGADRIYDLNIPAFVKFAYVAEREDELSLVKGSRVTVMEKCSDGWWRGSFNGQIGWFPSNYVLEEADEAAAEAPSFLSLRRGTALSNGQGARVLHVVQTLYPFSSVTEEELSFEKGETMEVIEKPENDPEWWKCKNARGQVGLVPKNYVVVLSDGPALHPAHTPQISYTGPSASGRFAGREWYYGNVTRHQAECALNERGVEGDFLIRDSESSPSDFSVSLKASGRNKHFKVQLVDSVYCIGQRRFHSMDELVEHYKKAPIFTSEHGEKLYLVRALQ
UniProt Q9QUI0: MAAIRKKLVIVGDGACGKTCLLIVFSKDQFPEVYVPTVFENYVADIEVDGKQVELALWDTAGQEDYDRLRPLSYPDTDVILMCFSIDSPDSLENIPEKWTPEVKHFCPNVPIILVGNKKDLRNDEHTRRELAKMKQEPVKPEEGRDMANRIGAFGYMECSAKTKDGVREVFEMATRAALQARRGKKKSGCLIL
UniProt Q03137, residues 20-986: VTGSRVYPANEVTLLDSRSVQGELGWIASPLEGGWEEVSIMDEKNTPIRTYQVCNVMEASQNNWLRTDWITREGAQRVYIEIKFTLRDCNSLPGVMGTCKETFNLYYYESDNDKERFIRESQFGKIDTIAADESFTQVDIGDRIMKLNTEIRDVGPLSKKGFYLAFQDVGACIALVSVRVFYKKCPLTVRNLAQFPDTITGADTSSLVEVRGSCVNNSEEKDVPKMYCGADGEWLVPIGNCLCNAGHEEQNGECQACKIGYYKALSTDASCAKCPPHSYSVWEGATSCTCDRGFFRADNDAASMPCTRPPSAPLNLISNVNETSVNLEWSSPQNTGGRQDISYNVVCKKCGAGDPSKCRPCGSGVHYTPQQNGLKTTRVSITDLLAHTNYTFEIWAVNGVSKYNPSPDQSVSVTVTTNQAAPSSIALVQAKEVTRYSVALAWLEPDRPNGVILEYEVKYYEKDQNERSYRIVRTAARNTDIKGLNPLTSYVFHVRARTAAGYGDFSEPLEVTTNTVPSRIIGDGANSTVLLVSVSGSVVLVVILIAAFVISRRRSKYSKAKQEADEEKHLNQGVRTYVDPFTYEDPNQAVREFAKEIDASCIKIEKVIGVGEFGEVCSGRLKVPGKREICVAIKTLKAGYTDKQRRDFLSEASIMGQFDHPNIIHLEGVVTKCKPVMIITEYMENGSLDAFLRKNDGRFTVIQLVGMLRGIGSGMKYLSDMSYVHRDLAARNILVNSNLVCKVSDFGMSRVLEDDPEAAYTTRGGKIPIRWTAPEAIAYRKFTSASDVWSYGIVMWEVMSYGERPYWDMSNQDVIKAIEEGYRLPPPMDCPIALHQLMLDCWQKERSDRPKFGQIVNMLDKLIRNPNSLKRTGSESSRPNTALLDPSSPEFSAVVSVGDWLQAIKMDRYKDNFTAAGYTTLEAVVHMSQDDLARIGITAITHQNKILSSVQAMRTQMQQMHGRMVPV

Row | binding [1] | binding [2] | Substance
1 | binds | binds | Rho A (from UniProt Q9QUI0 1-193)
2 | binds | binds | EphA4 (from UniProt Q03137 20-986) (receptor)
